Source: US20230406948A1

What was measured:
monkey CD40 (monkey) [1] = test: direct ELISA (legend of FIGS. 11A and 11B)
monkey CD40 (monkey) [2] = test: direct ELISA according to paragraph 284 (1 ug/ml monkey CD40 coated, 1 ug/ml antibody, goat anti-human IgG-HRP); y axis of the sheet reads MFI
monkey CD40 (monkey) [3] = test: direct ELISA, CD40 coated at 1 µg/ml, APX005 at 1 µg/ml
monkey CD40 (monkey) [4] = test: direct ELISA (summary of Example 2)

Measured: binding

B1: APX005, humanized version of the R-8 rabbit anti-CD40 antibody (antibody, IgG1, V domains shown)
VH: QVQLVESGGGVVQPGRSLRLSCAASGFSFSSTYVCWVRQAPGKGLEWIACIYTGDGTNYSASWAKGRFTISKDSSKNTVYLQMNSLRAEDTAVYFCARPDITYGFAINFWGPGTLVTVSS
VL: DIQMTQSPSSLSASVGDRVTIKCQASQSISSRLAWYQQKPGKPPKLLIYRASTLASGVPSRFSGSGSGTDFTLTISSLQPEDVATYYCQCTGYGISWPIGGGTKVEIK
binds: all assays above

No constants are given. Whether binding was seen depends on the method and setting. Binding calls can cover weak binding; strength is not graded here.
